Measurements as given in PMC4503993.
Results are given in words; binding and its absence hold for the method and conditions named. In cells and extracts the contact can be indirect. For some assays here: Binding can be weak; no strength is given. Tags and fused reporters may be left off the sequences shown.

By UniProt entry, the sequences of proteins in these tests, tags left out. Where a name states a change or a piece, a line headed by the entry shows the natural chain unless it says otherwise.
UniProt Q99PW8: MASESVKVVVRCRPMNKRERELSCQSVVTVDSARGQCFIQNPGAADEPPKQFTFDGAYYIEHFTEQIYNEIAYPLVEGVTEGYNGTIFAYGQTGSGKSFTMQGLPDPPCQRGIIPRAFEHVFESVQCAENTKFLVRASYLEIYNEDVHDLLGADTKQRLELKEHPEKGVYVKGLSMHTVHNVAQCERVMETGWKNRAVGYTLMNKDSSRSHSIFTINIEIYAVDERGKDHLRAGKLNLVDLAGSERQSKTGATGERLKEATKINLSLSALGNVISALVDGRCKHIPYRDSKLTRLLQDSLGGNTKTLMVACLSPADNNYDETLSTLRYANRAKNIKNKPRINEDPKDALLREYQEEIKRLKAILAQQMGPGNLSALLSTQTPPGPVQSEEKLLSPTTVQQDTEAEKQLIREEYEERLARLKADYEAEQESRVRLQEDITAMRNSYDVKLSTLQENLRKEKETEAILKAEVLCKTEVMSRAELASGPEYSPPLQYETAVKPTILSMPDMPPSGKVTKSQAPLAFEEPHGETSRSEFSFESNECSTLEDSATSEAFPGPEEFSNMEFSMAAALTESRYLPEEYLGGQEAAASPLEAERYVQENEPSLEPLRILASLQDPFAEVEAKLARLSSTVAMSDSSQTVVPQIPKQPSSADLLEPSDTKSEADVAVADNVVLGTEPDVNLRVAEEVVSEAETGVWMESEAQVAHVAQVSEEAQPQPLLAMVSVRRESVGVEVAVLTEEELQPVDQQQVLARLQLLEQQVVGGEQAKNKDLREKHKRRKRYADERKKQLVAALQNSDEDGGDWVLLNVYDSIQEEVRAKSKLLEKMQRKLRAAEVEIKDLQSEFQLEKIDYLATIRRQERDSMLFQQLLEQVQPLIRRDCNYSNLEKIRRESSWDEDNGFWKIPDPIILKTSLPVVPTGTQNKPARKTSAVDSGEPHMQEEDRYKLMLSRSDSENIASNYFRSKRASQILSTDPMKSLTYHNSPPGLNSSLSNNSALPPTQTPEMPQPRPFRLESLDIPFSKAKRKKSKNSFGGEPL

Legend:
[1] = molecular target: T1, GFP-MVH (mouse VASA homologue) (mouse) (UniProt Q61496); assay: co-IP; HEK293T cells co-transfected with FLAG- and GFP-tagged constructs; lysates in TNE buffer (10 mM Tris-HCl pH 7.5, 150 mM NaCl, 1 mM EDTA, 1% Nonidet P-40); precipitated with anti-FLAG or anti-GFP antibody overnight at 4 °C; in Fig. 6 with or without co-expressed CaMKIV-CA
T1 sequence: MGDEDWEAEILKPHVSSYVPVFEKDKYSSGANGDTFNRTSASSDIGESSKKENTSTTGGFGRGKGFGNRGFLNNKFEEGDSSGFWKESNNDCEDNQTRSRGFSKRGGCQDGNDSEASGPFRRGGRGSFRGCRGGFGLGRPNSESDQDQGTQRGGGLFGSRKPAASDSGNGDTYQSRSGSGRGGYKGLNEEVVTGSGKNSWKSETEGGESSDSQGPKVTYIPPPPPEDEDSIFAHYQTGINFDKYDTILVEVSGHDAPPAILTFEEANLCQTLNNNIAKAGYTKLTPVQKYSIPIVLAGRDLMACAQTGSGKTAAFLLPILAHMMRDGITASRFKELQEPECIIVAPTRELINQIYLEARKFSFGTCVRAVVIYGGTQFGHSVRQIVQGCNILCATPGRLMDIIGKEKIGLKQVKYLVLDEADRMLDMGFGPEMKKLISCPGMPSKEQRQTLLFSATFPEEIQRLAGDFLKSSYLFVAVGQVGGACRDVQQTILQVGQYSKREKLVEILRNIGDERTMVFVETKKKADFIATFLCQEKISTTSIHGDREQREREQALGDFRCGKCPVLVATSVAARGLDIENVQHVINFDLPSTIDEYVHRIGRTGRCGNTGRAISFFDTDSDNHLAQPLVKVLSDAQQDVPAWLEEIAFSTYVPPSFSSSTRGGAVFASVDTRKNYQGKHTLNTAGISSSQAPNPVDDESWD

[2] = molecular target: GST-KIF17b-tail C (mouse); assay: pull-down; purified GST-fusions of KIF17b truncations bound to glutathione-Sepharose beads, incubated with lysates of HEK293T cells transfected with GFP-MVH or GFP-MIWI; blotted with anti-GFP antibody; in Fig. 4C precipitates treated with RNase A at 37 °C for 1 min; only the target purified
[3] = molecular target: GST-KIF17b-CTD (C-terminal domain of KIF17b) (mouse); assay: as above
[4] = molecular target: GST-KIF17b-tail C-ΔIV (mouse); assay: as above
[5] = molecular target: GST-KIF17b-tail C-ΔPZD (mouse); assay: as above
[6] = molecular target: GST-KIF17b-tail C-ΔSH3 (mouse); assay: as above
[7] = molecular target: GST-KIF17b-tail (mouse); assay: as above
[8] = molecular target: FLAG-KIF17b-ΔIV (mutant form of KIF17b with R-K-K-S deletion) (mouse) (UniProt Q99PW8); assay: co-IP; HEK293T cells co-transfected with FLAG- and GFP-tagged constructs; lysates in TNE buffer (10 mM Tris-HCl pH 7.5, 150 mM NaCl, 1 mM EDTA, 1% Nonidet P-40); precipitated with anti-FLAG or anti-GFP antibody overnight at 4 °C; in Fig. 6 with or without co-expressed CaMKIV-CA

FLAG-KIF17b-ΔM (motor-domain-deleted form of FLAG-tagged KIF17b) (mouse) (domain or fragment)
binding [1]: binds

B1: GFP-MVH (mouse VASA homologue) (protein, UniProt Q61496 1-702)
chain: T1 sequence
binding [2]: binds
binding [3]: binds
binding [4]: no binding
binding [5]: binds
binding [6]: binds
binding [7]: binds

B2: GFP-CaMKIV-FL (enzyme, UniProt P08414 1-469)
chain: MLKVTVPSCPSSPCSSVTASTENLVPDYWIDGSNRDPLGDFFEVESELGRGATSIVYRCKQKGTQKPYALKVLKKTVDKKIVRTEIGVLLRLSHPNIIKLKEIFETPTEISLVLELVTGGELFDRIVEKGYYSERDARDAVKQILEAVAYLHENGIVHRDLKPENLLYATPAPDAPLKIADFGLSKIVEHQVLMKTVCGTPGYCAPEILRGCAYGPEVDMWSVGIITYILLCGFEPFYDERGDQFMFRRILNCEYYFISPWWDEVSLNAKDLVKKLIVLDPKKRLTTFQALQHPWVTGKAANFVHMDTAQKKLQEFNARRKLKAAVKAVVASSRLGSASSSHTSIQENHKASSDPPSTQDAKDSTDLLGKKMQEEDQEEDQVEAEASADEMRKLQSEEVEKDAGVKEEETSSMVPQDPEDELETDDPEMKRDSEEKLKSVEEEMDPMTEEEAPDAGLGVPQQDAIQPEY
binding [8]: binds
